No constants are given. Whether binding was seen depends on the method and setting. In cells and extracts the contact can be indirect. For some assays here: Binding calls can cover weak binding; strength is not graded here. Where a sequence is shown, tags or fusion partners need not be part of it.
Tests used:
His6PvdF (P. aeruginosa) = experiment: pull-down
PvdFHis6 (P. aeruginosa) = experiment: pull-down

B1: PvdA (untagged) (enzyme, UniProt Q51548 1-443)
chain: MTQATATAVVHDLIGVGFGPSNIALAIALQERAQAQGALEVLFLDKQGDYRWHGNTLVSQSELQISFLKDLVSLRNPTSPYSFVNYLHKHDRLVDFINLGTFYPCRMEFNDYLRWVASHFQEQSRYGEEVLRIEPMLSAGQVEALRVISRNADGEELVRTTRALVVSPGGTPRIPQVFRALKGDGRVFHHSQYLEHMAKQPCSSGKPMKIAIIGGGQSAAEAFIDLNDSYPSVQADMILRASALKPADDSPFVNEVFAPKFTDLIYSREHAERERLLREYHNTNYSVVDTDLIERIYGVFYRQKVSGIPRHAFRCMTTVERATATAQGIELALRDAGSGELSVETYDAVILATGYERQLHRQLLEPLAEYLGDHEIGRDYRLQTDERCKVAIYAQGFSQASHGLSDTLLSVLPVRAEEISGSLYQHLKPGTAARALHEHALAS
His6PvdF (P. aeruginosa)
  binding: no binding
PvdFHis6 (P. aeruginosa)
  binding: binds

Source: PMC7926923, “Identification of Active Site Residues of the Siderophore Synthesis Enzyme PvdF and Evidence for Interaction of PvdF with a Substrate-Providing Enzyme” (International Journal of Molecular Sciences, 2021)
